From doi:10.1101/2020.08.06.240739
No constants are given. Whether binding was seen depends on the method and setting. Binding seen in cells or lysates may run through a third protein. Here binding means that the protein was enriched with, or labelled near, the bait; the list need not be complete. Tags and fused reporters may be left off the sequences shown.

Sequences of proteins named here, by UniProt entry; tags and fusion partners are left off.
UniProt O96017: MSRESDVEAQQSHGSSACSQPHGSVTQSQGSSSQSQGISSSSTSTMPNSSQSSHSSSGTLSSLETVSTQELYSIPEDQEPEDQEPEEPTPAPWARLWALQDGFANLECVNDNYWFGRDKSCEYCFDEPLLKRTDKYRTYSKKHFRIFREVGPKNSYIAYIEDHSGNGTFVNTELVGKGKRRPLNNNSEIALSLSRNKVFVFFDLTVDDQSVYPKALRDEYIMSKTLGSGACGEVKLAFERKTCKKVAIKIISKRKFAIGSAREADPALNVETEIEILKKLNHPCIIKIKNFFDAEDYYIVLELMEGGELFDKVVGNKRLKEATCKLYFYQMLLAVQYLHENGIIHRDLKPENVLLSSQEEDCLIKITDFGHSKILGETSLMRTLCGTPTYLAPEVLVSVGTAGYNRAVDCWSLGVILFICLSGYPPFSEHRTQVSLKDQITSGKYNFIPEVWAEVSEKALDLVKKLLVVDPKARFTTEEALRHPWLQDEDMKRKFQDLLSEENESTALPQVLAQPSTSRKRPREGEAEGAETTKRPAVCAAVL

Biological target: T1, Flag-tagged OGT (O-GlcNAc transferase) (UniProt O15294)
T1 sequence: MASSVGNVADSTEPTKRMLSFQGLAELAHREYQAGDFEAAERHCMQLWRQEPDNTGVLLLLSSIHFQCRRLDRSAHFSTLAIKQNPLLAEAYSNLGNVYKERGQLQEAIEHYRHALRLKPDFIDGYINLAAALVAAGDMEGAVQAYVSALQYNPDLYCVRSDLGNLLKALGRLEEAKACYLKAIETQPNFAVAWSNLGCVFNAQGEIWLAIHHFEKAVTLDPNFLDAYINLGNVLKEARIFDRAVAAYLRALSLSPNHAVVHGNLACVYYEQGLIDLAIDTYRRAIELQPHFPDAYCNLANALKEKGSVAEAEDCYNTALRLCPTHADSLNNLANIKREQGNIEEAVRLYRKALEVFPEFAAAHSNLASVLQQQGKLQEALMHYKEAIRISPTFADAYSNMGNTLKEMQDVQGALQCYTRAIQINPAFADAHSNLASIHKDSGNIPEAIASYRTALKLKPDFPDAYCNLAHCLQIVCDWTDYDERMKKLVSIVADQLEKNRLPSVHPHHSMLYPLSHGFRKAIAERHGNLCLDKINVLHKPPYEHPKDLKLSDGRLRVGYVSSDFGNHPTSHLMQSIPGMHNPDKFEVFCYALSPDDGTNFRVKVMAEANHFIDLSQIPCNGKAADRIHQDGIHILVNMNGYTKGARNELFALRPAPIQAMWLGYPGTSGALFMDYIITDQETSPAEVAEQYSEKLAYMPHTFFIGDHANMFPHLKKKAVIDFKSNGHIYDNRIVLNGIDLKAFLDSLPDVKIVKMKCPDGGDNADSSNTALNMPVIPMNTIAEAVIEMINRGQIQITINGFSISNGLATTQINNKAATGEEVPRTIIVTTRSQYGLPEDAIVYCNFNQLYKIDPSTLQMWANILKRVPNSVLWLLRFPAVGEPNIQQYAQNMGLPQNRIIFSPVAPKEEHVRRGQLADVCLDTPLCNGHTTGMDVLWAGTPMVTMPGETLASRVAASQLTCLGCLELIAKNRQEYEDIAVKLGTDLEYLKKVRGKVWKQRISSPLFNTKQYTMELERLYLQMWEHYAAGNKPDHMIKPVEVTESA
Experiment: affinity purification with mass spectrometry

Substance: checkpoint kinase 2 (CHK2), endogenous (from UniProt O96017 1-543)
- binding: binds
